PubChem BioAssay AID1053208 – Peter MacCallum Cancer Centre, 2014

Aim: 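Synthetic lethal interactions between gene loss and doxorubicin in osteosarcoma cells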 (primary screen)
Cell system: mouse osteosarcoma cells, early-passage culture from an engineered mouse model of fibroblastic bone tumour
Knock-down reagent: siRNA pool against mouse genes, 40 nM
Time to read-out: about 120 h (48 h before drug, then 72 h with drug)
Conditions: doxorubicin 100 nM for 72 h, roughly 30-40% inhibitory dose
Measured: 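Luminescent ATP signal taken as viability with or without 100 nM doxorubicin for 72 h; mean of two wells set against non-targeting siRNA and turned into robust z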
Direction: viability z-score with doxorubicin and doxorubicin viability vs non-targeting: higher = more viable cells under doxorubicin; viability z-score without drug: higher = more viable cells with knock-down alone; z-score of drug to no-drug ratio: higher = less drug sensitisation by knock-down
Active means: 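Called active if knock-down leaves viability unchanged without drug (z within -2 to 2) but lowers it with doxorubicin (z at or under -2)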
The deposit covers about 17,000 reagents; this is a part drawn at random. Over the whole deposit, 788 (4.7%) got an active call. 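Calls rest on z-score classes alone; an extra cut-off of viability at most 70% of control was not applied to them.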 Reagents against one gene are numbered here. Some reagents were tested in more than one well and are listed for each. No sequences are given here.

gene	reagent	combined z-score class	viability z-score with doxorubicin	viability z-score without drug	z-score of drug to no-drug ratio	doxorubicin viability vs non-targeting	activity call
Adora3	1	no change with or without drug	0	0.34	-0.11	0.94	inactive
Adora3	2	no change with or without drug	0.34	-0.67	1.01	0.97	inactive
Aldh5a1	1	no change with or without drug	0.22	0.17	0.22	0.96	inactive
Tef	1	low cell count with doxorubicin only	-2.14	-1.35	-1.35	0.75	active
Mcoln3	1	no change with or without drug	0.79	1.85	-0.34	1.01	inactive
Rhox2a	1	no change with or without drug	-1.69	0.51	-1.91	0.79	inactive

Records above with an active call, once more:
gene	reagent	combined z-score class	viability z-score with doxorubicin	viability z-score without drug	z-score of drug to no-drug ratio	doxorubicin viability vs non-targeting	activity call
Tef	1	low cell count with doxorubicin only	-2.14	-1.35	-1.35	0.75	active

The results go on:
gene	reagent	combined z-score class	viability z-score with doxorubicin	viability z-score without drug	z-score of drug to no-drug ratio	doxorubicin viability vs non-targeting	activity call
Bap1	1	no change with or without drug	0.79	0.17	0.79	1.01	inactive
Npr2	1	no change with or without drug	-0.45	-0.17	-0.22	0.9	inactive
Npr2	1	high cell count with doxorubicin only	2.47	1.01	1.91	1.16	inactive
Nid1	1	no change with or without drug	0.9	0.17	0.9	1.02	inactive
Zbtb37	1	no change with or without drug	-0.22	-0.51	0.22	0.92	inactive
Nat8	1	no change with or without drug	0.45	1.18	-0.22	0.98	inactive
Mpo	1	no change with or without drug	-0.11	0.51	-0.34	0.93	inactive
Bik	1	no change with or without drug	0.45	0	0.56	0.98	inactive
Anapc2	1	low cell count with doxorubicin only	-2.25	0.17	-2.36	0.74	active
Spink12	1	no change with or without drug	-0.45	0	-0.34	0.9	inactive
Acnat2	1	low cell count with doxorubicin only	-2.02	-0.51	-1.69	0.76	active
Zfp653	1	no change with or without drug	-0.67	0.84	-1.12	0.88	inactive
Serac1	1	no change with or without drug	-0.56	0.17	-0.56	0.89	inactive
Hif3a	1	high cell count without drug only	0.67	2.36	-0.67	1	inactive
